# According to patent publication US6642365B1, “Anti-(retro)viral conjugates of saccharides and acetamidino or guanidino compounds” (Yeda Research and Development Co. Ltd., priority 2001, dated 2003):
# At least one compound was matched to its structure with a doubt left.
# Test system: TAR RNA
# Assay: L-arginine-Amberlite affinity column elution of TAR RNA
# Assay type: binding, HIV-1
# Conditions: concentration that elutes 50% of TAR RNA from L-arginine-Amberlite affinity column
# Procedure: The model Tat peptide (R52: […]) was prepared by the Weizmann Institute Chemical Services and was purified by reverse phase HPLC (C-18) (Lapidot et al., 1995). […] The RNA was transcriptionally labeled with α-^32P UTP, purified on a 12% polyacrylamide/7M urea gel (19:1 acrylamide:bis-acrylamide) and was eluted from the gel by 0.5M ammonium acetate, 10 mM magnesium acetate, 1 mM EDTA and 0.1% SDS. The sample was subjected to phenol extraction and the RNA was precipitated from 70% ethanol. Purified RNA was dissolved in diethyl pyrocarbonate-treated water (DEPC water), its concentration was determined by UV absorption at 260 nm and the specific radioactivity was determined by scintillation counting on a LS 1701 “Bruker” counter.
# The L-arginine-Amberlite resin was prepared as follows: Carboxyl groups of Amberlite IRC-50 resin were covalently modified with ethanolamine using 1-(3-dimethylaminopropyl) 3-ethylcarbodiimide, a water-soluble coupler. […] The column was eluted 3 to 5 times with 400 μl portions of buffer A, until no radioactivity was detected in the eluent. […] Radioactivity of the eluates was determined by scintillation counting on a LS 1701 “Bruker” counter. CE50 values, the concentrations of inhibitors eluting 50% of the radioactive material from the column, were determined.
smiles,measurement,value
"CO[C@@H]1O[C@H](CC(N)=O)C(O)[C@H](O)[C@@H]1O (stereo partly drawn) [compound 8, Methyl 6-deoxy-α-D-mannoheptopyranuronic acid amide]",CE50,>1500 mM
